According to publication doi:10.1101/727677:
These are yes or no findings as the source states them, for the method shown. Binding seen in cells or lysates may run through a third protein. Some entries that bind do so weakly or less than the wild type. For some assays here: Tags and fused reporters may be left off the sequences shown. Blank lines part the entries; values can stand above or below the binder they belong to.

The chains behind the UniProt entries cited, without tags or fusion partners. Where a name states a change or a piece, a line headed by the entry shows the natural chain unless it says otherwise. Residues count along the entry.
UniProt P17948, 27-1338: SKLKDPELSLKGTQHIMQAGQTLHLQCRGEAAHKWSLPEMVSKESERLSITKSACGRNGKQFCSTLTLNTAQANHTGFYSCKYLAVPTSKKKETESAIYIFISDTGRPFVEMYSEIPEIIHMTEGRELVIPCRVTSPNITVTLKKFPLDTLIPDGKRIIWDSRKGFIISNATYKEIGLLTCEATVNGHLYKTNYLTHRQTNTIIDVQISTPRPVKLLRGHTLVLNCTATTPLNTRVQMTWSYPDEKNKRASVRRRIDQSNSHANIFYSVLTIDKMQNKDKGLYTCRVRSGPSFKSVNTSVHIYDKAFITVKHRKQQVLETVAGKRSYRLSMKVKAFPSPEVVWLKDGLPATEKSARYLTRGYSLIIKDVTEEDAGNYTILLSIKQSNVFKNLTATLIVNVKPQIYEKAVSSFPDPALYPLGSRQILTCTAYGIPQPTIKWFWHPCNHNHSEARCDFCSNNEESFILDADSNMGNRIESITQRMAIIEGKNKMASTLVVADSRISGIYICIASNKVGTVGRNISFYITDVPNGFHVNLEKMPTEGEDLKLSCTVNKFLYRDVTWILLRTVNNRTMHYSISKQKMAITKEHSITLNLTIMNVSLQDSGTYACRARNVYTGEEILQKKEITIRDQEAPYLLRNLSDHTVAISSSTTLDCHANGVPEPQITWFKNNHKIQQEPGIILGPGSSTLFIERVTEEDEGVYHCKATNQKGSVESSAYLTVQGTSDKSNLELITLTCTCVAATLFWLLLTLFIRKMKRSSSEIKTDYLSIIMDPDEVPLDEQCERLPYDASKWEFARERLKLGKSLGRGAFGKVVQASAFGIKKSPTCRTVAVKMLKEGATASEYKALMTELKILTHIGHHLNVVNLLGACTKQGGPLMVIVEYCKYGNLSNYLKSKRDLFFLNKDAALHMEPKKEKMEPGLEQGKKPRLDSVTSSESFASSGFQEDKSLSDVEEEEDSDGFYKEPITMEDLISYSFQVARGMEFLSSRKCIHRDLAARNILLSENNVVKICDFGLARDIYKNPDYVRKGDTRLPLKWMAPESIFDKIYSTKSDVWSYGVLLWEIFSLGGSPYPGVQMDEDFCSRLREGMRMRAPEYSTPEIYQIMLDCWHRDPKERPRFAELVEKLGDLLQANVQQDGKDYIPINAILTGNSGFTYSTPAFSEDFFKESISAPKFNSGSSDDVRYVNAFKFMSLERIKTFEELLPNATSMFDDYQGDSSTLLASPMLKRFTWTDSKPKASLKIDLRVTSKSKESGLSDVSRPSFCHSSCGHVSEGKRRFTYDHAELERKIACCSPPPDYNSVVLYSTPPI
UniProt P17948, whole entry, looked up, stated change not applied: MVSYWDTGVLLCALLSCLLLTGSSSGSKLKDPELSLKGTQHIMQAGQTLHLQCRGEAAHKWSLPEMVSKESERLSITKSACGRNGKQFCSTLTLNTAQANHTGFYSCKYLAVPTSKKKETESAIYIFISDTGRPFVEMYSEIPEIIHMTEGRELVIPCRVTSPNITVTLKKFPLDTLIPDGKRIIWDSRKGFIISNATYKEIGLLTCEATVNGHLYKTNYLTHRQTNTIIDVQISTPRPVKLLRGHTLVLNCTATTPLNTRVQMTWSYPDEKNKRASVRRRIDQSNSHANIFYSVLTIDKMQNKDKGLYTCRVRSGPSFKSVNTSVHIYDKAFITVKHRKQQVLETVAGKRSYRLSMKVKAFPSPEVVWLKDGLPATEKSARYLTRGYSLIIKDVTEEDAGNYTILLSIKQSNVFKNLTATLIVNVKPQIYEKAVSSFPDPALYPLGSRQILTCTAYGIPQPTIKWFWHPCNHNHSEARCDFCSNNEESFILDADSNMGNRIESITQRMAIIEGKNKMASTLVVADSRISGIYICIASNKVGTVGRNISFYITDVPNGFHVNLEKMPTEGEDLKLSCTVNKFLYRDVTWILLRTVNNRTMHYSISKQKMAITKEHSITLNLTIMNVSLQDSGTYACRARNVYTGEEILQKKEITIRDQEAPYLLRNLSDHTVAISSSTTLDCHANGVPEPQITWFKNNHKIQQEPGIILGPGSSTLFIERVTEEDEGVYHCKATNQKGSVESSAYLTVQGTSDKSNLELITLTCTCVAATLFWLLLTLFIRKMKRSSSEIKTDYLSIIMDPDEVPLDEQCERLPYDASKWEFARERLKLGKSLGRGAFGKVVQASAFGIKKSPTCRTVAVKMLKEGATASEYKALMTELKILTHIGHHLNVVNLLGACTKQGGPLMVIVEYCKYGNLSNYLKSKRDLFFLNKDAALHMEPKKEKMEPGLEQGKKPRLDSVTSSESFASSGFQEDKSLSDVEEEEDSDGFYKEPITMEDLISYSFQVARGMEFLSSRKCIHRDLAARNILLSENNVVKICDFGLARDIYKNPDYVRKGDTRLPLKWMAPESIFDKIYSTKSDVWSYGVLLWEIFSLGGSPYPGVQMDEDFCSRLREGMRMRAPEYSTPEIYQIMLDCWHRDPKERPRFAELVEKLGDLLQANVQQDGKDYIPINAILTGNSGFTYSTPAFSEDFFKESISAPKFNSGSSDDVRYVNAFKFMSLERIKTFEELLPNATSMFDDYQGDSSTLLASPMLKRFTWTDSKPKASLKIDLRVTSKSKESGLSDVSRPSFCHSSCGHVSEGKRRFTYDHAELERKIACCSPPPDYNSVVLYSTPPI

Legend:
V5-tagged VEGFR1 = V5-tagged VEGFR1 (UniProt P17948); assay: FRET or BRET
[1] = target: VEGFR1 (expression vector, co-immunoprecipitation in HeLa) (UniProt P17948); assay: co-IP
YKEP deletion VEGFR1 = YKEP deletion VEGFR1 (UniProt P17948); assay: co-IP
[2] = target: VEGFR1 (endogenous, HUVEC) (human (endogenous in HUVEC)) (UniProt P17948); assay: co-IP

binding (V5-tagged VEGFR1): binds
B1: Flag-tagged Vav1 (protein, UniProt P15498 1-845)
chain: MELWRQCTHWLIQCRVLPPSHRVTWDGAQVCELAQALRDGVLLCQLLNNLLPHAINLREVNLRPQMSQFLCLKNIRTFLSTCCEKFGLKRSELFEAFDLFDVQDFGKVIYTLSALSWTPIAQNRGIMPFPTEEESVGDEDIYSGLSDQIDDTVEEDEDLYDCVENEEAEGDEIYEDLMRSEPVSMPPKMTEYDKRCCCLREIQQTEEKYTDTLGSIQQHFLKPLQRFLKPQDIEIIFINIEDLLRVHTHFLKEMKEALGTPGAANLYQVFIKYKERFLVYGRYCSQVESASKHLDRVAAAREDVQMKLEECSQRANNGRFTLRDLLMVPMQRVLKYHLLLQELVKHTQEAMEKENLRLALDAMRDLAQCVNEVKRDNETLRQITNFQLSIENLDQSLAHYGRPKIDGELKITSVERRSKMDRYAFLLDKALLICKRRGDSYDLKDFVNLHSFQVRDDSSGDRDNKKWSHMFLLIEDQGAQGYELFFKTRELKKKWMEQFEMAISNIYPENATANGHDFQMFSFEETTSCKACQMLLRGTFYQGYRCHRCRASAHKECLGRVPPCGRHGQDFPGTMKKDKLHRRAQDKKRNELGLPKMEVFQEYYGLPPPPGAIGPFLRLNPGDIVELTKAEAEQNWWEGRNTSTNEIGWFPCNRVKPYVHGPPQDLSVHLWYAGPMERAGAESILANRSDGTFLVRQRVKDAAEFAISIKYNVEVKHIKIMTAEGLYRITEKKAFRGLTELVEFYQQNSLKDCFKSLDTTLQFPFKEPEKRTISRPAVGSTKYFGTAKARYDFCARDRSELSLKEGDIIKILNKKGQQGWWRGEIYGRVGWFPANYVEEDYSEYC

binding [1]: binds
B2: Vav1 (GFP tagged) (protein, UniProt P15498 1-845)
chain: B1 chain

binding [1]: binds | binding (YKEP deletion VEGFR1): no binding
B3: Vav1 (HA tagged) (protein, UniProt P15498 1-845)
chain: B1 chain

binding [2]: binds
B4: Vav1 (endogenous, HUVEC) (protein, UniProt P15498 1-845)
chain: B1 chain
